Changes are numbered by the printed parent chain. Names and notes keep the numbering of the source. Where two headings read alike, the source gives them in different places. Results are given in words; binding and its absence hold for the method and conditions named. In cells and extracts the contact can be indirect. Some results given as binding are weak or reduced against the parent protein; the word gives no strength. Tags and fused reporters may be left off the sequences shown.
B1: IDS-V5 (wild-type, full-length human iduronate 2-sulfatase, C-terminal V5 tag) (enzyme, UniProt P22304-1 26-550)
chain: SETQANSTTDALNVLLIIVDDLRPSLGCYGDKLVRSPNIDQLASHSLLFQNAFAQQAVCAPSRVSFLTGRRPDTTRLYDFNSYWRVHAGNFSTIPQYFKENGYVTMSVGKVFHPGISSNHTDDSPYSWSFPPYHPSSEKYENTKTCRGPDGELHANLLCPVDVLDVPEGTLPDKQSTEQAIQLLEKMKTSASPFFLAVGYHKPHIPFRYPKEFQKLYPLENITLAPDPEVPDGLPPVAYNPWMDIRQREDVQALNISVPYGPIPVDFQRKIRQSYFASVSYLDTQVGRLLSALDDLQLANSTIIAFTSDHGWALGEHGEWAKYSNFDVATHVPLIFYVPGRTASLPEAGEKLFPYLDPFDSASQLMEPGRQSMDLVELVSLFPTLAGLAGLQVPPRCPVPSFHVELCREGKNLLKHFRFRDLEEDPYLPGNPRELIAYSQYPRPSDIPQWNSDKPSLKDIKIMGYSIRTIDYRYTVWVGFNPDEFLANFSDIHAGELYFVDSDPLQDHNMYNDSQGGDLFQLLMP
B2: IDS N246Q-V5 (enzyme, UniProt P22304-1 26-550)
chain: B1 chain with N221Q

Chains of the proteins cited; added tags and fusions are not shown. Lines headed by an entry give the natural chain unless they say otherwise; changes in a name come on top. Residues count along the entry.
UniProt O43567, 35-381: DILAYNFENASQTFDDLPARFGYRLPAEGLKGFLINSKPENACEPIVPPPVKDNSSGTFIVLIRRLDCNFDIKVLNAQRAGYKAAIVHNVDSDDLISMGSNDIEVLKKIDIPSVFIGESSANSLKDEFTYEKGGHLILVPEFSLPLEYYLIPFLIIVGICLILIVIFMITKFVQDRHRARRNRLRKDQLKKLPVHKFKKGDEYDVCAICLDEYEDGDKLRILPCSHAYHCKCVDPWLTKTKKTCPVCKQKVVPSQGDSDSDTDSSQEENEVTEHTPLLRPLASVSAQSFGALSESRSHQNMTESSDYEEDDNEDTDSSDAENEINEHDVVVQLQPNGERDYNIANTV

Legend:
Test in all cases: co-IP
[1] = biological target: RNF13-HA (wild-type, full-length human RNF13, HA-tagged) (human) (UniProt O43567)
[2] = biological target: RNF13-HA (wild-type, full-length human RNF13, HA-tagged) (human) (UniProt O43567); remark: listed apart in the source
[3] = biological target: RNF13-HA (wild-type, full-length human RNF13, HA-tagged) (human) (UniProt O43567); remark: listed apart in the source

Binder	binding [1]	binding [2]	binding [3]
B1	binds	binds	binds
B2			binds
